Source: PubChem BioAssay AID1439 (NMMLSC, 2008)
About 770 (0.35%) of roughly 220,000 compounds were called active. The inconclusive results got no clear call from the source; some entries with a clear call stand among them for comparison. No stated cut-off is given here; in the data, active means binding response below about 49% or above about 150%; inconclusive means no clear call, values can overlap the other calls; inactive means in between.

Protein sequences, listed by entry. Tags and fused reporters are not part of them.
UniProt P09471, whole entry, looked up: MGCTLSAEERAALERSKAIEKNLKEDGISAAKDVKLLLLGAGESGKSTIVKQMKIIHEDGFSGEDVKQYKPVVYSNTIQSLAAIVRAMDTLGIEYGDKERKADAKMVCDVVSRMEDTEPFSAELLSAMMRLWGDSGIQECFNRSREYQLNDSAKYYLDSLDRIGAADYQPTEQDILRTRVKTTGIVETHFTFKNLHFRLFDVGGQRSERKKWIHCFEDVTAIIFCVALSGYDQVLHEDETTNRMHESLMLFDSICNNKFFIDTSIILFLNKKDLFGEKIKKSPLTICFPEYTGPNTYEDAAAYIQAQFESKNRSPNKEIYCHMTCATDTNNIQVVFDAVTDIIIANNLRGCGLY

molecular target: Guanine nucleotide-binding protein G(o) subunit alpha (Homo sapiens) (UniProt P09471); test: RGS7-Galphao binding modulators, primary screen, biochemical, multiplexed bead flow cytometry (AID 1439); details: at 10 µM, actives lie on both sides;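 further: fluorescent Galphao held in activated GDP-AlF4 state binding bead-coupled RGS7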

| SMILES | binding response (% of control) |
| --- | --- |
| COc1ccc(Nc2nc3[nH]c(=O)cc(O)c3s2)cc1 | active: 20.7% |
| O=C(/C=C/c1ccc(-c2ccccc2[N+](=O)[O-])o1)c1ccco1 | inconclusive: 105% |
| CC(NCc1ccccc1Cl)C(=O)Nc1ccc(C#N)cc1 (stereo not given) | inconclusive: 100% |
| Cc1ccc(C)c(C(=O)OCC(=O)Nc2cccc(S(=O)(=O)NC3=NCCCCC3)c2)c1 | inactive: 96.8% |
| COC(=O)c1c(SCC(=O)Nc2ccc(C)c(C)c2)nc(=O)[nH]c1C | inconclusive: 130% |
| CSC1=C(C#N)C(=O)NC(c2ccccc2O)S1 (stereo not given) | inconclusive: 86.2% |
| O=C(CCCCCn1c(=S)[nH]c2ccc(N3CCOCC3)cc2c1=O)NCCc1ccccc1 | inactive: 108% |
| O=C(O)CNc1nc(-c2ccccc2)nc2c1oc1ccccc12 | inconclusive: 91.6% |
| COc1ccc2c(CC(=O)Nc3ccccc3OC)coc2c1 | inconclusive: 82.8% |
| O=C(NN=C1CCCC1)c1[nH]c2ccc(Cl)cc2c1-c1ccccc1 | inconclusive: -33% |
| COc1ccccc1N1CCN(C2CCN(S(=O)(=O)c3ccc(C)cc3)CC2)CC1 | inconclusive: 73.3% |
| CC[C@@H](C)CN1C(=O)N[C@@H](CCc2ccccc2)C(C(C)=O)=C1C | inconclusive: 82.9% |
| Cc1ccc(C)c(S(=O)(=O)N=Nc2c(O)[nH]c3ccccc23)c1 | inconclusive: 99.7% |
| CC(=O)Nc1cccc(C(=O)OCC(=O)NCc2ccc(F)cc2)c1 | inconclusive: 101% |
| COc1ccccc1-c1ccc(/C=C2\C=CC(=O)O2)o1 | inconclusive: 114% |
| CCn1nc(C)c(/C=N/NC(=O)c2nc3nc(C)cc(C)n3n2)c1C | inconclusive: -30.9% |
| Cc1c(O)ccc2c(CN3CCN(C/C=C/c4ccccc4)CC3)cc(=O)oc12 | inconclusive: 106% |
| CS(=O)(=O)N1CCN(c2ccc(NC(=O)c3ccccc3)cc2)CC1 | inconclusive: 104% |
| Cc1ccsc1/C=N/NC(=S)NCCc1ccccc1 | inconclusive: 114% |
| O=C1CCCC2=C1C(c1ccc(O)cc1)c1c(ccc3ccccc13)N2 (stereo not given) | inconclusive: 98.8% |
| Cc1ccc(S(=O)(=O)N(C)C)cc1NC(=O)COC(=O)/C=C/c1ccc2c(c1)OCO2 | inactive: 107% |
| S=c1[nH]nc(-c2ccncc2)n1/N=C/c1cn(-c2ccccc2)nc1-c1ccccc1 | inconclusive: 3.5% |
| Cn1c(SCc2c(Cl)cccc2Cl)nnc1-c1ccc2nonc2c1 | inconclusive: 111% |
| Cc1c(C(=O)NN)sc(=S)n1C | inconclusive: 55.9% |
| CCN(CC)CCNC(=O)c1ccc(NS(=O)(=O)c2ccc3c(c2)OCCO3)cc1 | inconclusive: 92.2% |

Individual results from the results shown:
Entry of COc1ccc2c(CC(=O)Nc3ccccc3OC)coc2c1 under binding response (% of control): inconclusive: 82.8%
Entry of O=C(/C=C/c1ccc(-c2ccccc2[N+](=O)[O-])o1)c1ccco1 under binding response (% of control): inconclusive: 105%
